Results as given in US20260193355A1.
No constants are given. Whether binding was seen depends on the method and setting. Some binding calls cover weakened binding; strength is not graded here. Where a sequence is shown, tags or fusion partners need not be part of it.

Columns and labels:
[1] = target: T1, His-tagged canine PD-L1 protein (6xHis tagged extracellular domain of cPD-L1) (canine) (UniProt E2RKZ5); test: Octet biolayer interferometry, His-tagged cPD-L1 on NTA biosensor, antibody in solution
T1 sequence: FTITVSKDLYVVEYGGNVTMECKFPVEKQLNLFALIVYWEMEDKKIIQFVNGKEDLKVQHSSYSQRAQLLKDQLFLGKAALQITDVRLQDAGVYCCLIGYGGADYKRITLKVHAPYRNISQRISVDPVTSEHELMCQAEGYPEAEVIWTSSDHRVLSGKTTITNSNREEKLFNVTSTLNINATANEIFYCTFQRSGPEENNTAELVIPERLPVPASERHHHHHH

[2] = target: T1, His-tagged canine PD-L1 protein (6xHis tagged extracellular domain of cPD-L1) (canine); test: ELISA, bound Ab as OD450

B1: cPD-L1 12C10E4 chimeric antibody (mouse variable domains, canine IgG2 heavy and canine kappa light constant domains) (antibody, V domains shown)
VH: QVQLKQSGPGLVQPSQSLSITCTISGFSLTSFGVHWVRQSPGKGLEWLGVIWSGGSTDYNAAFTSRLSINKDNSKSQVFFKMNSLQADDTAIYYCARGGGPDWYFDVWGTGTTVTVSS
VL: DIVLTQSPASLAVSLGQRATISCRASESVEYYGTSLMQWYQQKPGQPPKLLIFAASNVKSGVPARFSGSGSGTDFSLNIHPVEEDDIAMYFCQQSGKVPHTFGGGTKLEIKR
- binding [1]: binds
- binding [2]: binds
